Results deposited as PubChem BioAssay AID493246 (Drosophila RNAi Screening Center, 2011)
The screen tested about 21,000 reagents; below is a random part of those that have a named target and a result. In the full data, 429 (2%) are marked active. 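Values are raw and not normalised between plates; calls rest on per-plate z-scores that were not deposited.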 A number with no mark means an inactive call. Reagents against one gene are numbered here. Not stated in the record: the amount of reagent, the time to read-out.

Test: 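Genome-wide search for dsRNAs that reduce cell number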 (primary screen)
System: Drosophila Kc and S2R+ cells
Reagents: long dsRNA against Drosophila genes
Detection: 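Raw, unnormalised count of remaining cells in each well; per-plate z-scores of cell number underlie the calls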
Scale: Kc cell number and S2R+ cell number: higher = more cells remaining
Rule for the call: 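Active when the per-plate z-score of cell number is 3 or more in the direction of fewer cells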

CG13800 (retired record)
- Kc cell number, rep 1: 1.28e6
- Kc cell number, rep 2: 1.27e6
- S2R+ cell number, rep 1: 1.01e6
- S2R+ cell number, rep 2: 1.26e6

CG8142
- Kc cell number, rep 1: 1.60e6
- Kc cell number, rep 2: 1.63e6
- S2R+ cell number, rep 1: 1.06e6
- S2R+ cell number, rep 2: 1.26e6

CG14743
- Kc cell number, rep 1: 1.60e6
- Kc cell number, rep 2: 1.66e6
- S2R+ cell number, rep 1: 1.33e6
- S2R+ cell number, rep 2: 1.51e6

CG10663
- Kc cell number, rep 1: 1.57e6
- Kc cell number, rep 2: 1.53e6
- S2R+ cell number, rep 1: 1.37e6
- S2R+ cell number, rep 2: 1.45e6

CG14312
- Kc cell number, rep 1: 1.33e6
- Kc cell number, rep 2: 1.31e6
- S2R+ cell number, rep 1: 1.03e6
- S2R+ cell number, rep 2: 1.10e6

Acp53C14a
- Kc cell number, rep 1: 1.63e6
- Kc cell number, rep 2: 1.66e6
- S2R+ cell number, rep 1: 1.18e6
- S2R+ cell number, rep 2: 1.41e6

Cpr78Ca
- Kc cell number, rep 1: 1.56e6
- Kc cell number, rep 2: 1.64e6
- S2R+ cell number, rep 1: 1.27e6
- S2R+ cell number, rep 2: 1.37e6

dcma #1
- Kc cell number, rep 1: 1.49e6
- Kc cell number, rep 2: 1.53e6
- S2R+ cell number, rep 1: 1.03e6
- S2R+ cell number, rep 2: 1.14e6

dcma #2
- Kc cell number, rep 1: 1.58e6
- Kc cell number, rep 2: 1.40e6
- S2R+ cell number, rep 1: 1.14e6
- S2R+ cell number, rep 2: 1.23e6

Acsl
- Kc cell number, rep 1: 1.25e6
- Kc cell number, rep 2: 1.34e6
- S2R+ cell number, rep 1: 1.07e6
- S2R+ cell number, rep 2: 1.18e6

lectin-28C
- Kc cell number, rep 1: 1.54e6
- Kc cell number, rep 2: 1.63e6
- S2R+ cell number, rep 1: 1.22e6
- S2R+ cell number, rep 2: 1.32e6

Saysd1
- Kc cell number, rep 1: 1.43e6
- Kc cell number, rep 2: 1.46e6
- S2R+ cell number, rep 1: 1.00e6
- S2R+ cell number, rep 2: 1.09e6

CG32591
- Kc cell number, rep 1: 1.34e6
- Kc cell number, rep 2: 1.63e6
- S2R+ cell number, rep 1: 1.09e6
- S2R+ cell number, rep 2: 1.23e6

slp2
- Kc cell number, rep 1: 1.64e6
- Kc cell number, rep 2: 1.61e6
- S2R+ cell number, rep 1: 1.24e6
- S2R+ cell number, rep 2: 1.41e6

dmt
- Kc cell number, rep 1: 1.55e6
- Kc cell number, rep 2: 1.53e6
- S2R+ cell number, rep 1: 8.62e5
- S2R+ cell number, rep 2: 9.80e5

Sap30
- Kc cell number, rep 1: 1.58e6
- Kc cell number, rep 2: 1.57e6
- S2R+ cell number, rep 1: 1.04e6
- S2R+ cell number, rep 2: 1.21e6

CG14669 #1
- Kc cell number, rep 1: 1.12e6 (active)
- Kc cell number, rep 2: 1.09e6
- S2R+ cell number, rep 1: 7.22e5
- S2R+ cell number, rep 2: 7.52e5

CG14669 #2
- Kc cell number, rep 1: 1.52e6
- Kc cell number, rep 2: 1.48e6
- S2R+ cell number, rep 1: 1.12e6
- S2R+ cell number, rep 2: 1.25e6

CG14669 #3
- Kc cell number, rep 1: 1.75e6
- Kc cell number, rep 2: 1.75e6
- S2R+ cell number, rep 1: 1.17e6
- S2R+ cell number, rep 2: 1.31e6

CG14669 #4
- Kc cell number, rep 1: 1.39e6
- Kc cell number, rep 2: 1.62e6
- S2R+ cell number, rep 1: 1.21e6
- S2R+ cell number, rep 2: 1.29e6

stretch (retired record) #1
- Kc cell number, rep 1: 1.81e6
- Kc cell number, rep 2: 1.85e6
- S2R+ cell number, rep 1: 9.75e5
- S2R+ cell number, rep 2: 1.07e6

stretch (retired record) #2
- Kc cell number, rep 1: 1.59e6
- Kc cell number, rep 2: 1.63e6
- S2R+ cell number, rep 1: 1.34e6
- S2R+ cell number, rep 2: 1.46e6

stretch (retired record) #3
- Kc cell number, rep 1: 1.62e6
- Kc cell number, rep 2: 1.64e6
- S2R+ cell number, rep 1: 1.38e6
- S2R+ cell number, rep 2: 1.41e6

stretch (retired record) #4
- Kc cell number, rep 1: 1.51e6
- Kc cell number, rep 2: 1.65e6
- S2R+ cell number, rep 1: 1.35e6
- S2R+ cell number, rep 2: 1.46e6

stretch (retired record) #5
- Kc cell number, rep 1: 1.44e6
- Kc cell number, rep 2: 1.56e6
- S2R+ cell number, rep 1: 1.40e6
- S2R+ cell number, rep 2: 1.43e6

A stretch of the results above, as a working copy:
CG32591
- Kc cell number, rep 1: 1.34e6
- Kc cell number, rep 2: 1.63e6
- S2R+ cell number, rep 1: 1.09e6
- S2R+ cell number, rep 2: 1.23e6

slp2
- Kc cell number, rep 1: 1.64e6
- Kc cell number, rep 2: 1.61e6
- S2R+ cell number, rep 1: 1.24e6
- S2R+ cell number, rep 2: 1.41e6
